This is one part of the list. The calls rarely recur for the same compound in another form.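 Kinases were expressed as nanoluciferase fusions in K562 cells and luminescence was read every 4 h between 2 and 18 h as percent of control, DMSO set to 100% and a positive control to 0%. A time point counts as decreased when the signal drops significantly (2 sigma). The hit call is the authors' own, does not follow from the count of time points alone, and its rule is not shown.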
Assays:
Assay in all cases: kinase-Nluc reporter destabilization hit call (1 = scored as downregulated) (binary); higher = compound decreases kinase abundance
Details in all cases: K562; 2-18 h
PDPK1 = PDPK1 (UniProt O15530)
PIK4CA = PIK4CA (UniProt P42356)
PIK4CB = PIK4CB (UniProt Q9UBF8)
PLK1 = PLK1 (UniProt P53350)
PRKAA1 = PRKAA1 (UniProt Q13131)
PRKCA = PRKCA (UniProt P17252)
PTK2 = PTK2 (UniProt Q05397)
PTK2B = PTK2B (UniProt Q14289)
RAF1 = RAF1 (UniProt P04049)
[1] = biological target: RAF1_S257L (clone: RAF1_mut) (UniProt P04049)
RET = RET (UniProt P07949)
[2] = biological target: RET_M918T (clone: RET_mut) (UniProt P07949)
RIOK1 = RIOK1 (UniProt Q9BRS2)
RIPK1 = RIPK1 (UniProt Q13546)
RIPK2 = RIPK2 (UniProt O43353)
ROR2 = ROR2 (UniProt Q01974)
RPS6KA1 = RPS6KA1 (UniProt Q15418)
SPHK1 = SPHK1 (UniProt Q9NYA1)
SRC = SRC (UniProt P12931)
STK24 = STK24 (UniProt Q9Y6E0)

By UniProt entry, the sequences of proteins in these tests, tags left out. Where a name states a change or a piece, a line headed by the entry shows the natural chain unless it says otherwise.
UniProt P42356, whole entry, looked up: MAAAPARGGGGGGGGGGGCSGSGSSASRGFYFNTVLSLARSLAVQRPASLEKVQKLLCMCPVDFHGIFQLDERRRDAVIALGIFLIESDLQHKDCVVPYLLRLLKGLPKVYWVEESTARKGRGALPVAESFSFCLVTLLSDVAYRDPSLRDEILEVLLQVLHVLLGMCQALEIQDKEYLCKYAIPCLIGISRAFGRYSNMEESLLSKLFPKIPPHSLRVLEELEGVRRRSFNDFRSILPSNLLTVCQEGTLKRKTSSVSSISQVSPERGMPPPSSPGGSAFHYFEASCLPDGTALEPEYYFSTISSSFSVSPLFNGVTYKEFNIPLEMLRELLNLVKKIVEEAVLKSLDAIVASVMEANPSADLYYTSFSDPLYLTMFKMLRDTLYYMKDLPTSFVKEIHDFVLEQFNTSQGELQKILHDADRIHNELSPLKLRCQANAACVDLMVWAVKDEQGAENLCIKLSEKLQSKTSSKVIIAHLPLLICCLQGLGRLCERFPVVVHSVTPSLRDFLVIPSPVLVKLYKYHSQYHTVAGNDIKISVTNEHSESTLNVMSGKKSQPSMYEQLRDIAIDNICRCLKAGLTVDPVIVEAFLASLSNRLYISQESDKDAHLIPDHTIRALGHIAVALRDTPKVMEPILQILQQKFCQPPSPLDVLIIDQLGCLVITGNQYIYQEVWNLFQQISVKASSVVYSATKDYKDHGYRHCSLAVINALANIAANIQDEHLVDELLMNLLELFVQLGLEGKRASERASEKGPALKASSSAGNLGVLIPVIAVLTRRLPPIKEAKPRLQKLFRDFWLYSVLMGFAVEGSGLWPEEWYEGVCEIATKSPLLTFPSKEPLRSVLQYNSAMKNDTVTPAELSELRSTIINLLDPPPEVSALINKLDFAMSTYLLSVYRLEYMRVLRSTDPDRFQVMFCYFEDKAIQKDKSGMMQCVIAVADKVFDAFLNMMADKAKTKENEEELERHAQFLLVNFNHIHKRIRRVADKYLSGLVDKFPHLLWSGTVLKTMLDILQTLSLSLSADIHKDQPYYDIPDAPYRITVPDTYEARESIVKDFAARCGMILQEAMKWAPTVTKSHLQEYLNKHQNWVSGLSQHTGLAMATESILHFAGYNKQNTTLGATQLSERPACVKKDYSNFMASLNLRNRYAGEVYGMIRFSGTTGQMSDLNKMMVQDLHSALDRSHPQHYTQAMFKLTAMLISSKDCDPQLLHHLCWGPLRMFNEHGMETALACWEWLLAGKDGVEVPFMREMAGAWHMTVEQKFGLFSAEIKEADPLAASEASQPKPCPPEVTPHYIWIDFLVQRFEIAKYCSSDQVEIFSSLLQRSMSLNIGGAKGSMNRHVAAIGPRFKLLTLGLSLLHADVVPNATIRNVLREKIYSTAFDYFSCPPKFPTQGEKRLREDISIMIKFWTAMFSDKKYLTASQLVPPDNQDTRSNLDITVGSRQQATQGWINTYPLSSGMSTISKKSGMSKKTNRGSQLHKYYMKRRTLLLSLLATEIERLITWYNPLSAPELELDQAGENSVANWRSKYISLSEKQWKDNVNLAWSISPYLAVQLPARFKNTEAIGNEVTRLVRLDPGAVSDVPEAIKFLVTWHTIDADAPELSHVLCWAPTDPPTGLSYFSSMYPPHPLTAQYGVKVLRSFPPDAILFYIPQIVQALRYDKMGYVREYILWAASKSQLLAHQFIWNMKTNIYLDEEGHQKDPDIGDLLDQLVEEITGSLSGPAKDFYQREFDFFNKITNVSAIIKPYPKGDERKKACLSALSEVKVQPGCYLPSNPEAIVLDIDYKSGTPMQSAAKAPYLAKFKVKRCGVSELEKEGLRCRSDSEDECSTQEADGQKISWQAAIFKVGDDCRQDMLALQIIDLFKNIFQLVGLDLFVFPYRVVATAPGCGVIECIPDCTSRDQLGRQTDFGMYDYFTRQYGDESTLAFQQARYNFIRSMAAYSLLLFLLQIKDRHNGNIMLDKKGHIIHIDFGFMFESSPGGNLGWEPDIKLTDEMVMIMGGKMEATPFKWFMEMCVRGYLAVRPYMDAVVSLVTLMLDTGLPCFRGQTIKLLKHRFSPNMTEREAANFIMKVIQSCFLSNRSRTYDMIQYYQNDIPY
UniProt Q9UBF8: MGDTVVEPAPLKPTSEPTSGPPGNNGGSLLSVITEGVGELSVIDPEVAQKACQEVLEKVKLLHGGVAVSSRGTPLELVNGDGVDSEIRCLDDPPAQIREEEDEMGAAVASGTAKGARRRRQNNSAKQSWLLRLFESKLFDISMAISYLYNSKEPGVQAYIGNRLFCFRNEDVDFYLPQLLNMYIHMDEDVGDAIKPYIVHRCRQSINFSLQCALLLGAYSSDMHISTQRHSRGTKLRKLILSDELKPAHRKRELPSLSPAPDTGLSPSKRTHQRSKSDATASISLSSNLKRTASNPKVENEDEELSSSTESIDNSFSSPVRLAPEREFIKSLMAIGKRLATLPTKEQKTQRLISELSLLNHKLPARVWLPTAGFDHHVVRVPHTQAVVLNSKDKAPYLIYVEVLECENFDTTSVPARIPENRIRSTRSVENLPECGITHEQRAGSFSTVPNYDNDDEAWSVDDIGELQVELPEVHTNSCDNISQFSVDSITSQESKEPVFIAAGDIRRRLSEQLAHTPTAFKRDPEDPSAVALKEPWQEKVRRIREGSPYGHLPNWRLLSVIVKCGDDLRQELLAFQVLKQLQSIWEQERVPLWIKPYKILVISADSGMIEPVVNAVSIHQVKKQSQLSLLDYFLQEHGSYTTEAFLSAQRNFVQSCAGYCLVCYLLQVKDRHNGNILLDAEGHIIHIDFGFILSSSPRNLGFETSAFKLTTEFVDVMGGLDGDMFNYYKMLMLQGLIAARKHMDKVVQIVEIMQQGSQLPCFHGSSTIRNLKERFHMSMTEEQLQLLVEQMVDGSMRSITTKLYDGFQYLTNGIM
UniProt P53350, whole entry: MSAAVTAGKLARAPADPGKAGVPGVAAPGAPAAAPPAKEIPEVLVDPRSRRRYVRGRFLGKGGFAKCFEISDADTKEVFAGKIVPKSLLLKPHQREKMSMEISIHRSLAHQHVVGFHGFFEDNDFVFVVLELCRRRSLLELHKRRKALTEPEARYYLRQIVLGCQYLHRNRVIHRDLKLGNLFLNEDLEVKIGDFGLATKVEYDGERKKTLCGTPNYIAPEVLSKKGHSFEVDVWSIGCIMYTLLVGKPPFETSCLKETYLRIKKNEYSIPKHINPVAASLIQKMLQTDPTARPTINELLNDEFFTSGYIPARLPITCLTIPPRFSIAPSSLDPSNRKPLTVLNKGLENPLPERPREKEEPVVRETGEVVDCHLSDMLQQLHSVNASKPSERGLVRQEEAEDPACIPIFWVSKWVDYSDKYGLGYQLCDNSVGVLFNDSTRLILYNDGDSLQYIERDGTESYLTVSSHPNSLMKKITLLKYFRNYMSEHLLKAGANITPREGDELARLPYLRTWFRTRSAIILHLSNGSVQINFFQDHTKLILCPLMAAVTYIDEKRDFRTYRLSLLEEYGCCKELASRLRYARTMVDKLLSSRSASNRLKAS
UniProt Q13131: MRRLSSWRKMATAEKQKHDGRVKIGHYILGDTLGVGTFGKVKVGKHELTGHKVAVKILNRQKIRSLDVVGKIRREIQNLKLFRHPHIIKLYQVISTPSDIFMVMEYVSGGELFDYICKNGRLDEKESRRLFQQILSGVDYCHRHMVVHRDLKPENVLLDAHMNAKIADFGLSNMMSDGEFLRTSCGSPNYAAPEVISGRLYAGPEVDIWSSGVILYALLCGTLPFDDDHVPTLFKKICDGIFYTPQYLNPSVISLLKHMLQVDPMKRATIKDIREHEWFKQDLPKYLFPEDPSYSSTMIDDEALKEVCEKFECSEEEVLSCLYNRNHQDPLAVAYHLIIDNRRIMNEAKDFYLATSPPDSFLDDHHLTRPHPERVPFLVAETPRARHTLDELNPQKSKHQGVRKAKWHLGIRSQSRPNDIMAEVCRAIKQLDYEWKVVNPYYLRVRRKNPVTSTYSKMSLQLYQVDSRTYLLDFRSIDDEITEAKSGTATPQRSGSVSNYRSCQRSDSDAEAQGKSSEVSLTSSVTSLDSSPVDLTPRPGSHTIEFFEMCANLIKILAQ
UniProt Q05397, whole entry, looked up: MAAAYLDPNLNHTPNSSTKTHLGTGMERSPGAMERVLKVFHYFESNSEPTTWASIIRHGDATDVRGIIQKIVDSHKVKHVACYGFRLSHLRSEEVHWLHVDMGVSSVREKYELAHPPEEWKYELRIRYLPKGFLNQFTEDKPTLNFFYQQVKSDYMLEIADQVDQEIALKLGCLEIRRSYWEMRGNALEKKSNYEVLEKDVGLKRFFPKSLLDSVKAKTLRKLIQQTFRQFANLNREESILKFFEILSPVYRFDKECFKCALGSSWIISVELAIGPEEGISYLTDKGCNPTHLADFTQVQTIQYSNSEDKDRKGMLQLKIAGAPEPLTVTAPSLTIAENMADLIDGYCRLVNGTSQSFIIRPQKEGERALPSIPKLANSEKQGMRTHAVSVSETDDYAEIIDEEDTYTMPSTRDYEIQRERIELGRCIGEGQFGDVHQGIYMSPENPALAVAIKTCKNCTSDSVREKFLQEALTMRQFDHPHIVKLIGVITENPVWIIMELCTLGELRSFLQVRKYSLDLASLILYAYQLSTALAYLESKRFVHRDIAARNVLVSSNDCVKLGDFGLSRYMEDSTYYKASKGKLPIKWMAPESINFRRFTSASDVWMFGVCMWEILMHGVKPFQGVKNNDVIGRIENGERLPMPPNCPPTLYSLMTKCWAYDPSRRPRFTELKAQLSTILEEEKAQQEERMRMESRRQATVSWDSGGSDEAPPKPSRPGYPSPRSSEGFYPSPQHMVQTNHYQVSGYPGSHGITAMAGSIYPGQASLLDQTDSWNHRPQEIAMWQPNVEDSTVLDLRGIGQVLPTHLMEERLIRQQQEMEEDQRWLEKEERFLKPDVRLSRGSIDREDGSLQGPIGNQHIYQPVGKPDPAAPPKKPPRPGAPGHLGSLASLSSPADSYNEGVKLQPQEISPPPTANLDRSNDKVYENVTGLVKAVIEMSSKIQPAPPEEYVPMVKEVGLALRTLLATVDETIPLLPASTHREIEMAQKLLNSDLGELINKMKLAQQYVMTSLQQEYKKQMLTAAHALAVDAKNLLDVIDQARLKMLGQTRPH
UniProt Q9BRS2: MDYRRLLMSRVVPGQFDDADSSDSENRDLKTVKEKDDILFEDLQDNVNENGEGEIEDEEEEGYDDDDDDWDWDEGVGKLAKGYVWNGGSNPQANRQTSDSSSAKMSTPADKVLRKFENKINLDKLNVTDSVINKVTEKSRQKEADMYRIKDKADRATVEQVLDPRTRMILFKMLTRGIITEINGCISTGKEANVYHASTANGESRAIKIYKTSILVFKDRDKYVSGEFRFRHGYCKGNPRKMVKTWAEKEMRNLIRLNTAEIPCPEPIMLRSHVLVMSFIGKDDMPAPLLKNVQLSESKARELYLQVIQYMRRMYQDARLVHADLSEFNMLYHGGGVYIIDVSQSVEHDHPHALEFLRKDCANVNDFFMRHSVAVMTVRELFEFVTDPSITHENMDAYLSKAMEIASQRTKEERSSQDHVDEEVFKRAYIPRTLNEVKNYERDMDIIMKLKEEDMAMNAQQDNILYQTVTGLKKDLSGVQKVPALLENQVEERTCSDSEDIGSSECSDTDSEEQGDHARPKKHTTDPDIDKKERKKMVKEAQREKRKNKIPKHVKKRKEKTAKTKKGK
UniProt Q15418, whole entry: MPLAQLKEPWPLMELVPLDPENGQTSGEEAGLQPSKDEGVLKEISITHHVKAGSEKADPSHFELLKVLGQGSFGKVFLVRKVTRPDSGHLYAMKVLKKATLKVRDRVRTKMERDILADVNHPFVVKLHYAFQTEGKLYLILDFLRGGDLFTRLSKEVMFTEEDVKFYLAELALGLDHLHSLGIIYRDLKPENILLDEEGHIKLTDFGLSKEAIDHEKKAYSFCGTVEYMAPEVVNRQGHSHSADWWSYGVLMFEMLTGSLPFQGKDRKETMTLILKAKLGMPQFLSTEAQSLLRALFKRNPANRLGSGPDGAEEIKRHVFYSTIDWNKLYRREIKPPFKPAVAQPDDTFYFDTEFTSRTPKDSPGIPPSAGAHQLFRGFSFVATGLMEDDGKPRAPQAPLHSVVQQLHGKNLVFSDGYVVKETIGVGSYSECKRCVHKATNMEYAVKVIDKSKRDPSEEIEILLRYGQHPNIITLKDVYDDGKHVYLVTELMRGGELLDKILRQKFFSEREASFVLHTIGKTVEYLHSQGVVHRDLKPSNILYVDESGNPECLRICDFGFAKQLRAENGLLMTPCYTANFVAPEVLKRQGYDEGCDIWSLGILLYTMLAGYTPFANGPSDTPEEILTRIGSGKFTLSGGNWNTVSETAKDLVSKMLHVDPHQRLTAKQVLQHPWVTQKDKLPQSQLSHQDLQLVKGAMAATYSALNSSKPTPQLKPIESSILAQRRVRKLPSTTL

Measured: kinase-Nluc reporter destabilization hit call

Cc1ccc(CNc2ncnc3ccc(-c4ccc(CO)o4)cc23)o1 (10 µM)
inactive: PDPK1 = 0 | PIK4CA 0 | PIK4CB 0 | PLK1 = 0 | PRKAA1 = 0 | PRKCA 0 | PTK2 = 0 | PTK2B 0 | RAF1 = 0 | [1] 0 | RET 0 | [2] 0 | RIOK1 = 0 | RIPK1 = 0 | RIPK2 = 0 | ROR2 = 0 | RPS6KA1 = 0 | SPHK1 = 0 | SRC 0 | STK24 = 0

C[C@@H]1COCCN1c1cc(C2([S@@](C)(=N)=O)CC2)nc(-c2ccnc3[nH]ccc23)n1 [(S)-Ceralasertib] (10 µM)
inactive: PDPK1 = 0 | PIK4CA 0 | PIK4CB 0 | PLK1 = 0 | PRKAA1 = 0 | PRKCA 0 | PTK2 = 0 | PTK2B 0 | RAF1 = 0 | [1] 0 | RET 0 | [2] 0 | RIOK1 = 0 | RIPK1 = 0 | RIPK2 = 0 | ROR2 = 0 | RPS6KA1 = 0 | SPHK1 = 0 | SRC 0 | STK24 = 0

CCN1CCN(Cc2ccc(-c3cc4c(N[C@H](C)c5ccccc5)ncnc4[nH]3)cc2)CC1 (2.5 µM)
inactive: PDPK1 = 0 | PIK4CA 0 | PIK4CB 0 | PLK1 = 0 | PRKAA1 = 0 | PRKCA 0 | PTK2 = 0 | PTK2B 0 | RAF1 = 0 | [1] 0 | RET 0 | [2] 0 | RIOK1 = 0 | RIPK1 = 0 | RIPK2 = 0 | ROR2 = 0 | RPS6KA1 = 0 | SPHK1 = 0 | SRC 0 | STK24 = 0

CN1CCN(c2cccc(Nc3nc4c(-c5ccc(S(C)(=O)=O)cc5)cccn4n3)c2)CC1 (10 µM)
inactive: PDPK1 = 0 | PIK4CA 0 | PIK4CB 0 | PLK1 = 0 | PRKAA1 = 0 | PRKCA 0 | PTK2 = 0 | PTK2B 0 | RAF1 = 0 | [1] 0 | RET 0 | [2] 0 | RIOK1 = 0 | RIPK1 = 0 | RIPK2 = 0 | ROR2 = 0 | RPS6KA1 = 0 | SPHK1 = 0 | SRC 0 | STK24 = 0

COc1cc(Nc2ncc(F)c(Nc3ccc4c(n3)N(COP(=O)(O)O)C(=O)C(C)(C)O4)n2)cc(OC)c1OC [Fostamatinib Disodium] (10 µM)
inactive: PDPK1 = 0 | PIK4CA 0 | PIK4CB 0 | PLK1 = 0 | PRKAA1 = 0 | PRKCA 0 | PTK2 = 0 | PTK2B 0 | RAF1 = 0 | [1] 0 | RET 0 | [2] 0 | RIOK1 = 0 | RIPK1 = 0 | RIPK2 = 0 | ROR2 = 0 | RPS6KA1 = 0 | SPHK1 = 0 | SRC 0 | STK24 = 0

Oc1ccc(Nc2nc(-c3ccc(Cl)cc3)cs2)cc1 (10 µM)
inactive: PDPK1 = 0 | PIK4CA 0 | PIK4CB 0 | PLK1 = 0 | PRKAA1 = 0 | PRKCA 0 | PTK2 = 0 | PTK2B 0 | RAF1 = 0 | [1] 0 | RET 0 | [2] 0 | RIOK1 = 0 | RIPK1 = 0 | RIPK2 = 0 | ROR2 = 0 | RPS6KA1 = 0 | SPHK1 = 0 | SRC 0 | STK24 = 0

CC(C)(C)c1cc(O)ccc1O (10 µM)
inactive: PDPK1 = 0 | PIK4CA 0 | PIK4CB 0 | PLK1 = 0 | PRKAA1 = 0 | PRKCA 0 | PTK2 = 0 | PTK2B 0 | RAF1 = 0 | [1] 0 | RET 0 | [2] 0 | RIOK1 = 0 | RIPK1 = 0 | RIPK2 = 0 | ROR2 = 0 | RPS6KA1 = 0 | SPHK1 = 0 | SRC 0 | STK24 = 0

COc1ccc(-c2ccc3c(N4CCOCC4)nc(N4C[C@@H](C)O[C@@H](C)C4)nc3n2)cc1CO (2.5 µM)
inactive: PDPK1 = 0 | PIK4CA 0 | PIK4CB 0 | PLK1 = 0 | PRKAA1 = 0 | PRKCA 0 | PTK2 = 0 | PTK2B 0 | RAF1 = 0 | [1] 0 | RET 0 | [2] 0 | RIOK1 = 0 | RIPK1 = 0 | RIPK2 = 0 | ROR2 = 0 | RPS6KA1 = 0 | SPHK1 = 0 | SRC 0 | STK24 = 0

O=C1Nc2ccc(C(=O)c3ccco3)cc2C1=Cc1cc(Cl)c(O)c(Cl)c1 (2.5 µM)
active: PLK1 = 1 | PRKCA 1
inactive: PDPK1 = 0 | PIK4CA 0 | PIK4CB 0 | PRKAA1 = 0 | PTK2 = 0 | PTK2B 0 | RAF1 = 0 | [1] 0 | RET 0 | [2] 0 | RIOK1 = 0 | RIPK1 = 0 | RIPK2 = 0 | ROR2 = 0 | RPS6KA1 = 0 | SPHK1 = 0 | SRC 0 | STK24 = 0

C=CC(=O)Nc1cccc(Nc2nc(Nc3ccc(N4CCN(C(C)=O)CC4)cc3OC)ncc2C(F)(F)F)c1 [Rociletinib] (10 µM)
inactive: PDPK1 = 0 | PIK4CA 0 | PIK4CB 0 | PLK1 = 0 | PRKAA1 = 0 | PRKCA 0 | PTK2 = 0 | PTK2B 0 | RAF1 = 0 | [1] 0 | RET 0 | [2] 0 | RIOK1 = 0 | RIPK1 = 0 | RIPK2 = 0 | ROR2 = 0 | RPS6KA1 = 0 | SPHK1 = 0 | SRC 0 | STK24 = 0

Cc1nc2sccn2c(=O)c1CCN1CCC(=C(c2ccccc2)c2ccc(F)cc2)CC1 (10 µM)
inactive: PDPK1 = 0 | PIK4CA 0 | PIK4CB 0 | PLK1 = 0 | PRKAA1 = 0 | PRKCA 0 | PTK2 = 0 | PTK2B 0 | RAF1 = 0 | [1] 0 | RET 0 | [2] 0 | RIOK1 = 0 | RIPK1 = 0 | RIPK2 = 0 | ROR2 = 0 | RPS6KA1 = 0 | SPHK1 = 0 | SRC 0 | STK24 = 0

COc1cc(Nc2ncc(F)c(Nc3ccc4c(n3)NC(=O)C(C)(C)O4)n2)cc(OC)c1OC [R406 (free base)] (10 µM)
inactive: PDPK1 = 0 | PIK4CA 0 | PIK4CB 0 | PLK1 = 0 | PRKAA1 = 0 | PRKCA 0 | PTK2 = 0 | RAF1 = 0 | [1] 0 | RIOK1 = 0 | RIPK1 = 0 | RIPK2 = 0 | ROR2 = 0 | RPS6KA1 = 0 | SPHK1 = 0 | SRC 0 | STK24 = 0

COc1cc2nccc(Oc3ccc(NC(=O)NC4CC4)c(Cl)c3)c2cc1C(N)=O [Lenvatinib] (10 µM)
inactive: PDPK1 = 0 | PIK4CA 0 | PIK4CB 0 | PLK1 = 0 | PRKAA1 = 0 | PRKCA 0 | PTK2 = 0 | PTK2B 0 | RAF1 = 0 | [1] 0 | RET 0 | [2] 0 | RIOK1 = 0 | RIPK1 = 0 | RIPK2 = 0 | ROR2 = 0 | RPS6KA1 = 0 | SPHK1 = 0 | SRC 0 | STK24 = 0

NC(=O)c1nc(Nc2ccccc2)sc1NC(=O)C1CCCCC1 (10 µM)
inactive: PDPK1 = 0 | PIK4CA 0 | PIK4CB 0 | PLK1 = 0 | PRKAA1 = 0 | PRKCA 0 | PTK2 = 0 | PTK2B 0 | RAF1 = 0 | [1] 0 | RET 0 | [2] 0 | RIOK1 = 0 | RIPK1 = 0 | RIPK2 = 0 | ROR2 = 0 | RPS6KA1 = 0 | SPHK1 = 0 | SRC 0 | STK24 = 0

COc1cc(Nc2ncc(F)c(Nc3ccc4c(n3)N(COP(=O)(O)O)C(=O)C(C)(C)O4)n2)cc(OC)c1OC [Fostamatinib (disodium hexahydrate)] (10 µM)
inactive: PDPK1 = 0 | PIK4CA 0 | PIK4CB 0 | PLK1 = 0 | PRKAA1 = 0 | PRKCA 0 | PTK2 = 0 | PTK2B 0 | RAF1 = 0 | [1] 0 | RET 0 | [2] 0 | RIOK1 = 0 | RIPK1 = 0 | RIPK2 = 0 | ROR2 = 0 | RPS6KA1 = 0 | SPHK1 = 0 | SRC 0 | STK24 = 0

Cc1cc(Nc2ncnc3ccc(NC4=NC(C)(C)CO4)cc23)ccc1Oc1ccn2ncnc2c1 [Tucatinib] (2.5 µM)
inactive: PDPK1 = 0 | PIK4CA 0 | PIK4CB 0 | PLK1 = 0 | PRKAA1 = 0 | PRKCA 0 | PTK2 = 0 | PTK2B 0 | RAF1 = 0 | [1] 0 | RET 0 | [2] 0 | RIOK1 = 0 | RIPK1 = 0 | RIPK2 = 0 | ROR2 = 0 | RPS6KA1 = 0 | SPHK1 = 0 | SRC 0 | STK24 = 0
